Results: patent US20180044316A1, “POTENTIATORS OF BETA-LACTAM ANTIBIOTICS” (UNIVERSITY OF NOTRE DAME DU LAC, priority 2015, published 2018)
Some results were stated once for a whole list of compounds, not compound by compound. At least one compound was matched to its structure with a doubt left.

Tested on: S. aureus strain
Test: Compound MIC data (Example 3): lowering of MIC relative to control
Type: cell-based, Staphylococcus aureus
Conditions: compound typically at 0 (control), 2 and 20 μM; lower concentrations if inherently antibacterial

| Compound | decrease (MIC) relative to the control |
| --- | --- |
| CC(C)Cc1ccc(-c2nc(-c3ccc(Cl)cc3)c(-c3ccncc3)[nH]2)cc1 [Compound A35] | greater than 2 fold |
| CCCCCCCc1nc(-c2ccc(F)cc2)c(-c2ccncc2)[nH]1 [Compound A54] | greater than 2 fold |
| Fc1ccc(-c2nc(-c3ccc(N4CCCC4)cc3)[nH]c2-c2ccncc2)cc1 [Compound A15] | greater than 2 fold |
| Fc1ccc(-c2nc(-c3ccc(Cl)c(C(F)(F)F)c3)[nH]c2-c2ccncc2)cc1 [Compound A16] | greater than 2 fold |
| Oc1ccc(-c2nc(-c3ccc(F)cc3)c(-c3ccncc3)[nH]2)cc1 [Compound 1, reference compound] | greater than 2 fold |
| CC(C)Cc1ccc(-c2nc(-c3ccccc3)c(-c3ccncc3)[nH]2)cc1 [Compound A21] | greater than 2 fold |
| CC(C)Cc1ccc(-c2nc(-c3cccc(F)c3)c(-c3ccncc3)[nH]2)cc1 [Compound A20] | greater than 2 fold |
| CC(C)Cc1ccc(-c2nc(-c3ccc(C(F)(F)F)cc3)c(-c3ccncc3)[nH]2)cc1 [Compound A34] | greater than 2 fold |
| CC(C)Cc1ccc(-c2nc(-c3ccc(F)cc3)c(-c3cccnc3)[nH]2)cc1 [Compound A37] | greater than 2 fold |
| N#Cc1ccc(-c2[nH]c(-c3ccc(O)cc3)nc2-c2ccc(F)cc2)cc1 [Compound A17] | greater than 2 fold |
| CC(C)Oc1ccc(-c2nc(-c3ccc(F)cc3)c(-c3ccncc3)[nH]2)cc1 [Compound A12] | greater than 2 fold |
| CC(C)Cc1ccc(-c2nc(-c3ccc(F)cc3)c(-c3ccsc3)[nH]2)cc1 [Compound A45] | greater than 2 fold |
| CC(C)Cc1ccc(-c2nc(-c3ccc4nonc4c3)c(-c3ccncc3)[nH]2)cc1 [Compound A22] | greater than 2 fold |
| CC(C)c1ccc(-c2nc(-c3ccc(F)cc3)c(-c3ccncc3)[nH]2)cc1 [Compound A3] | greater than 2 fold |
| Fc1ccc(-c2nc(-c3ccc(OC(F)(F)F)cc3)[nH]c2-c2ccncc2)cc1 [Compound A4] | greater than 2 fold |
| CCc1cccc(-c2nc(-c3ccc(F)cc3)c(-c3ccncc3)[nH]2)c1 [Compound A53] | greater than 2 fold |
| CC(C)Cc1ccc(-c2nc(-c3ccccc3F)c(-c3ccncc3)[nH]2)cc1 [Compound A18] | greater than 2 fold |
| CCN(CC)c1ccc(-c2nc(-c3ccc(F)cc3)c(-c3ccncc3)[nH]2)cc1 [Compound A13] | greater than 2 fold |
| CC(C)Cc1ccc(-c2nc(-c3ccc(F)cc3)c(-c3cncnc3)[nH]2)cc1 [Compound A40] | greater than 2 fold |
| CC(C)Cc1ccc(-c2nc(-c3ccc(F)cc3)c(-c3ccncc3)n2C)cc1 [Compound A61] | greater than 2 fold |
